The record followed here is PMC5248655 (ACS chemical neuroscience, 2015).

Structures can show the parent of a compound that is named as a salt. Where two headings read alike, the source gives them in different places.

Experiment [1] has as its system Sprague–Dawley male rats. The experiment in a line: Brain efflux index. To be noted: aged rats (24 months) after 26 day treatment; absolute value reached.
For another experiment, the system named is LRP1. Particulars: 26 day treatment, Western blot, n = 5. A general note: Immunoblotting shows a protein as a band on a membrane.
The next experiment deals with Aβ42. Particulars: rat, in vivo.
The subject of the next experiment is Aβ40. Particulars: rat, in vivo.
Experiment [2] deals with Sprague–Dawley male rats. The experiment is described as follows: TCA precipitation assay of Aβ degradation in treated rats. The class given is in vivo, rat. Particulars: rats treated 26 days, data not shown.

Turning to `COc1cc2c(cc1OC)C(=O)C(CC1CCN(Cc3ccccc3)CC1)C2` (stereo not drawn) [donepezil, Donepezil hydrochloride], the “^125I-Aβ40 BEI%” value in the experiment on Sprague–Dawley male rats [1] was determined as 61%. In addition, the “increase in brain LRP1 protein expression” value in the experiment with LRP1 (aged rats) was found to be 20%. For the same compound, the “increase in brain LRP1 protein expression” value in the experiment with LRP1 (young rats) amounted to 22%. Further, in the experiment with Aβ42, the “reduction of total brain Aβ42 level” value was found to be 41%, the “reduction trend in brain Aβ42 levels (in words)” value is reported as “not statistically significant” and the “total Aβ42 level in brain” value is on record as 586 ± 31 pmol/g brain tissue. Moreover, in the experiment on Aβ40, the “reduction of total brain Aβ40 level” value turned out to be 29% and the “total Aβ40 level in brain” value worked out at 2497 ± 142 pmol/g brain tissue. The “effect on Aβ degradation” value in the experiment with Sprague–Dawley male rats [2] is listed as “no effect”.
